Laboratory results from PubChem BioAssay AID504834 (National Center for Advancing Translational Sciences (NCATS), 2011).
Among all 320,000 compounds or so, about 22,000 (6.9%) were called active. Inconclusive results, whose numbers are uncertain, are shown with a selection of clear calls. The call rests on the fitted dose curve; in most records, active means well fitted inhibition curve with a large enough effect; inconclusive means small, poorly fitted or top-dose-only effect, or another doubt; inactive means no such curve, though single readings can be large or run the other way. Potencies of inconclusive entries are doubtful fits and often do not repeat.

Experiment: Primary qHTS for delayed death inhibitors of the malarial parasite plastid, 96 hour incubation
Settings: P. falciparum luciferase reporter growth; series mostly up to 28.7 µM
How it was run: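 Luminescence readout: decreased luciferase signal marks inhibited growth of reporter-expressing P. falciparum in infected red cells (2% hematocrit, 0.05% parasitemia final), exposed to compound two generations (96 h, 37 C, 5% CO2).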
Potency means the concentration at half of the fitted maximal effect.

| SMILES | Potency |
| --- | --- |
| CCOc1ccc(CCNc2ccc3nnc(-c4ccccc4)n3n2)cc1OCC | active: 4.65 µM |
| CCOC(=O)c1cccc(NC(=O)CN2C(=O)C3CC=CCC3C2=O)c1 (stereo not given) | inactive |
| N#CC1=C(N)N(c2ncn[nH]2)C2=C(C(=O)CCC2)C1c1ccccc1 (stereo not given) | inactive |
| Cc1cc(C)c(C(=O)COC(=O)CCNS(=O)(=O)c2c(Cl)cccc2Cl)cc1C | inactive |
| COc1ccc(/C=N/NC(=O)CO/N=C(\C)c2cccs2)cc1 | inconclusive: 10.4 µM [inhibitor, single point] |
| CCCCOc1ccc(/C=N/NC(=O)C2CCCNC2=O)cc1 (stereo not given) | inactive |
| COc1ccc2oc(C(=O)OCC(=O)Nc3cccc(S(=O)(=O)N4CCOCC4)c3)c(C)c2c1 | inconclusive: 20.8 µM [inhibitor, single point] |
| CCN(C(=O)Cn1nnc(-c2ccccc2)n1)C1CCS(=O)(=O)C1 (stereo not given) | inactive |
| O=C(Nc1ccc(F)cc1)Nc1ccc([N+](=O)[O-])cn1 | inconclusive: 0.0329 µM [inhibitor, full curve, poor fit] |
| O=C(Nc1nccs1)c1ccc2c(c1)C(=O)N(Cc1cccnc1)C2=O | inconclusive: 18.5 µM [inhibitor, single point] |
| O=C(CSc1nnc2scc(-c3ccccc3)n12)NCc1ccco1 | inconclusive: 0.415 µM [inhibitor, full curve, poor fit] |
| Cn1c(=O)c2c(-c3ccc(C(C)(C)C)cc3)n(N3CCOCC3)cc2n(C)c1=O | inconclusive: 18.5 µM [inhibitor, single point] |
| COC(=O)c1ccc(/C=C2/SC(=S)N(CCC(=O)NCCCN3CCOCC3)C2=O)cc1 | inconclusive: 10.4 µM [inhibitor, partial curve] |
| O=C(CN1CCN(Cc2ccc(Cl)cc2)C1=O)NCCCN1CCN(c2ccc(F)cc2)CC1 | inconclusive: 10.4 µM [inhibitor, partial curve, poor fit] |
| N#CCCN1CCN(C(CNS(=O)(=O)c2ccc(Cl)cc2)c2ccccc2)CC1 (stereo not given) | active: 5.22 µM |
| O=C(N/N=C/c1cccc(Oc2ccc([N+](=O)[O-])cc2[N+](=O)[O-])c1)c1cncc(Br)c1 | inconclusive: 2.33 µM [inhibitor, partial curve, poor fit] |
| CCOC(=O)c1cn(-c2nc(-c3ccc(Cl)c(Cl)c3)cs2)c2c(F)c(N3CCOCC3)c(F)cc2c1=O | inconclusive: 8.28 µM [inhibitor, single point] |
| O=C(Nc1ccccc1Sc1ccccc1)C1CCCO1 (stereo not given) | inconclusive: 0.0329 µM [inhibitor, full curve, poor fit] |
| COc1ccccc1Oc1ccc(S(=O)(=O)N2CCCCC2C)cc1 (stereo not given) | inactive |
| Cc1nc(NC(=O)CSc2nc3ccccc3s2)sc1C(=O)N(C)C | inconclusive: 18.5 µM [inhibitor, single point] |
| CCCCN(C)C(=O)c1nc2ccccn2c1CN1CCC[C@H]1C(=O)OC | inconclusive: 11.7 µM [inhibitor, single point] |
| Cc1c(NC(=O)c2cccc(NC(=O)Cc3ccc(F)cc3)c2)c(=O)n(-c2ccccc2)n1C | inconclusive: 18.5 µM [inhibitor, single point] |
| C=C(C)CSc1nnc(-c2cccc(Cl)c2)n1N | inactive |
| COc1ccc(OC)c(S(=O)(=O)N2CCC(C(=O)NCc3ccccc3)CC2)c1 | inconclusive: 18.5 µM [inhibitor, single point] |

| SMILES | Potency |
| --- | --- |
| CCCCn1c(SCC(N)=O)nc2sc3c(c2c1=O)CCC3 | inconclusive: 18.5 µM [inhibitor, single point] |
| COc1cc(C(=O)NC2CCN(CC(=O)Nc3cccc(C)c3C)CC2)cc(OC)c1OC | inconclusive: 11.7 µM [inhibitor, partial curve, poor fit] |
| C=CCNc1nc(NCC)nc(N2CCOCC2)n1 | inconclusive: 10.4 µM [inhibitor, single point] |
| CC1Oc2ccccc2C=C1/C=N/Nc1ccc(C(=O)O)cc1 (stereo not given) | inactive |
| CCCc1[nH]n(-c2ccc([N+](=O)[O-])cc2)c(=O)c1C=NCCCn1ccnc1 | inactive |
| CCCNc1nc(Nc2ccc(C)cc2)nc(N2CCCC2)n1 | active: 2.08 µM |
| CCN(CC(=O)NC(C)(C)C)C(=O)c1ccc(Br)cc1 | inactive |
| CCCC1CCC(c2ccc(OCC)cc2)=CC1=O (stereo not given) | inactive |
| Cc1cc(=O)[nH]c(SCC(=O)NN(c2ccccc2)c2ccccc2)n1 | inconclusive: 13.1 µM [inhibitor, single point] |
| CC1Cc2cc(/C(O)=C3/C(=O)C(=O)N(CCN4CCOCC4)C3c3ccc([N+](=O)[O-])cc3)ccc2O1 (stereo not given) | active: 9.28 µM |
| O=C(CSc1nc2cc(Cl)ccc2s1)c1ccco1 | active: 10.4 µM |
| O=[N+]([O-])c1cccnc1Oc1ccc(F)cc1F | inconclusive: 3.7 µM [inhibitor, partial curve] |
| Cn1cnc2cc(NC(=O)COc3ccccc3)ccc21 | inactive |
| COc1cccc(NS(=O)(=O)c2ccc3[nH]cc(C(=O)NC4CC4)c(=O)c3c2)c1 | inconclusive: 11.7 µM [inhibitor, partial curve, poor fit] |
| COc1cccc(NC(=O)CC2S/C(=N\S(=O)(=O)c3ccccc3)N(c3ccccc3)C2=O)c1 (stereo not given) | inactive |
| c1coc(CNC2C3CC4CC(C3)CC2C4)c1 (stereo not given) | inconclusive: 0.0029 µM [inhibitor, full curve, poor fit] |
| Cc1ccc(/C=N/NC(=O)c2cc3c(s2)CCCC3)o1 | inconclusive: 13.1 µM [inhibitor, partial curve, poor fit] |
| COC(=O)C1=C(C)N(Cc2ccccc2)C(=O)N[C@H]1c1cccc(C(F)(F)F)c1 | inconclusive: 18.5 µM [inhibitor, single point] |
| CC(C)OC(=O)NS(=O)(=O)c1cccc([N+](=O)[O-])c1 | inactive |
| O=C(NO)c1cc(OCC(F)(F)F)ccc1OCC(F)(F)F | inconclusive: 1.04 µM [inhibitor, partial curve] |
| COc1ccc(S(=O)(=O)N2CCOCC2)cc1NC(=O)CCc1cc(OC)c(OC)c(OC)c1 | inconclusive: 5.86 µM [inhibitor, partial curve] |
| Fc1ccc2c(-c3cccc(C(F)(F)F)c3)c(-c3ccccc3)ncc2c1 | inconclusive: 11.7 µM [inhibitor, single point] |
| COc1ccc([N+](=O)[O-])cc1N(CC(O)CN(CC(C)C)CC(C)C)S(=O)(=O)c1ccccc1 (stereo not given) | inconclusive: 11.7 µM [inhibitor, single point] |
| COc1ccc(CCNC(=O)C2CCN(C(=O)c3ccccc3C)CC2)cc1 | inconclusive: 11.7 µM [inhibitor, single point] |

| SMILES | Potency |
| --- | --- |
| CC(C)CNC(=O)c1oc2ccccc2c1COc1ccccc1 | active: 10.4 µM |
| CC(C)Oc1ccc(Cn2c(=O)sc3ccccc32)cc1 | inactive |
| Oc1ccc(/C=N/NC(=S)NCc2ccco2)cc1 | inactive |
| CCN(CC)CCNC(=O)c1ccc(NC2=NC3CS(=O)(=O)CC3S2)cc1 (stereo not given) | inconclusive: 2.62 µM [inhibitor, full curve, poor fit] |
| COc1cc(CCC(=O)Nc2ccc(S(=O)(=O)N3CCCC3)cc2)cc(OC)c1OC | inconclusive: 5.86 µM [inhibitor, partial curve, poor fit] |
| CC1(C)CC(=O)C=C(c2cccc(O)c2)C1 | inactive |
| COc1ccccc1N1CCN(C2CCN(C(=O)COc3cccc(C)c3)CC2)CC1 | inconclusive: 0.522 µM [inhibitor, full curve, poor fit] |
| O=[N+]([O-])c1ccccc1S(=O)(=O)n1nnc2ccccc21 | inconclusive: 10.4 µM [inhibitor, single point] |
| Cc1cc(Cl)c2oc(C(=O)NCC(C)(C)N3CCOCC3)c(C)c2c1 | inactive |
| COc1ccc(C2CC(c3cccc(OC)c3)n3nc(N)nc3N2)cc1 (stereo not given) | inconclusive: 18.5 µM [inhibitor, single point] |
| CCSc1nc2sc3c(c2c(=O)[nH]1)CC(C)(C)OC3 | inconclusive: 11.7 µM [inhibitor, single point] |
| CC(C)Cc1nnc(NS(=O)(=O)Cc2ccccc2)s1 | inconclusive: 10.4 µM [inhibitor, partial curve, poor fit] |
| C#Cc1ccc([C@@H]2C=C(C(=O)NC3CC3)O[C@H](OCCCCO)C2)cc1 | inconclusive: 18.5 µM [inhibitor, single point] |
| CC(NC(=O)Nc1ccccc1)C(c1ccccc1)N1CCOCC1 (stereo not given) | inactive |
| COCCCNC(=O)CC(NS(=O)(=O)c1ccc(C)cc1)c1ccco1 (stereo not given) | inconclusive: 13.1 µM [inhibitor, single point] |
| CCOc1ccccc1CNC(=O)Cn1ccc2cc(S(=O)(=O)N3CCCCCC3)ccc21 | inconclusive: 11.7 µM [inhibitor, single point] |
| CCCCCCC1CCC(C(=O)N2CCOCC2)CC1 (stereo not given) | inactive |
| CCC(C)C(NC(=O)C1CCC(C)CC1)C(=O)NCCc1ccc(S(N)(=O)=O)cc1 (stereo not given) | inactive |
| COc1ccc(NC(=O)/C(C#N)=C\c2cc(C)n(-c3ccc4c(c3)OCO4)c2C)cc1 | inconclusive: 14.7 µM [inhibitor, partial curve, poor fit] |
| Cc1cccc(CNC(=O)C2CCC(=O)N(CCc3cccc(F)c3)C2)n1 (stereo not given) | inactive |
| COC(=O)c1ccc2c(c1)C(C)(C)C(/C=C/c1ccc(O)cc1)=[N+]2C | active: 5.22 µM |
| CCCN(CC(=O)Nc1ccccc1C)C(=O)c1ccc(-c2ccc(C(C)=O)cc2)o1 | inconclusive: 1.31 µM [inhibitor, partial curve, poor fit] |

Rewritten comma-delimited: 6 of the compounds above.
SMILES,Potency
CC(C)Oc1ccc(Cn2c(=O)sc3ccccc32)cc1,inactive
COc1ccccc1N1CCN(C2CCN(C(=O)COc3cccc(C)c3)CC2)CC1,"inconclusive: 0.522 µM [inhibitor, full curve, poor fit]"
Cc1cc(Cl)c2oc(C(=O)NCC(C)(C)N3CCOCC3)c(C)c2c1,inactive
CCC(C)C(NC(=O)C1CCC(C)CC1)C(=O)NCCc1ccc(S(N)(=O)=O)cc1 (stereo not given),inactive
COc1ccc(NC(=O)/C(C#N)=C\c2cc(C)n(-c3ccc4c(c3)OCO4)c2C)cc1,"inconclusive: 14.7 µM [inhibitor, partial curve, poor fit]"
COC(=O)c1ccc2c(c1)C(C)(C)C(/C=C/c1ccc(O)cc1)=[N+]2C,active: 5.22 µM
